In publication PMC6126873 one finds binding data, which are given here for six molecules.

The chains behind the UniProt entries cited, without tags or fusion partners.
UniProt Q80X56: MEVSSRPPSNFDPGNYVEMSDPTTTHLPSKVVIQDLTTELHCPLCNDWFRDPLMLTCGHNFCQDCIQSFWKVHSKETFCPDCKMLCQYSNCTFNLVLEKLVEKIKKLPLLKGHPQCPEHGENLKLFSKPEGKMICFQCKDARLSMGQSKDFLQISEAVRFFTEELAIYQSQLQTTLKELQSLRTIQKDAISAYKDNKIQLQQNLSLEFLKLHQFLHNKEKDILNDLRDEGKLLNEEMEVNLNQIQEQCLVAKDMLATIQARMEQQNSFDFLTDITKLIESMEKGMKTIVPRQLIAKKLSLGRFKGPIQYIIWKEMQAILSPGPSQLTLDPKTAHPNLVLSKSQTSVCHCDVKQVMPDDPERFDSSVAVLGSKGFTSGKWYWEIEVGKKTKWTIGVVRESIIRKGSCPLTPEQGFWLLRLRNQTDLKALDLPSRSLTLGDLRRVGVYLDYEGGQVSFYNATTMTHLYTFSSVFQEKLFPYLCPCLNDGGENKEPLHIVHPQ

Results are given in words; binding and its absence hold for the method and conditions named. For some of these results: In cells and extracts the contact can be indirect. Some entries that bind do so weakly or less than the wild type. For some of these results: Where a sequence is shown, tags or fusion partners need not be part of it.

For assay [1], the target named is NS3-Flag (Dengue virus type 2 (DENV-2), New Guinea C (NGC) strain) (UniProt P14340). The assay can be described thus: co-IP; cells co-transfected with NS2B, NS3 and TRIM69 (or control vector) for 48 h, then treated with MG132; immunoprecipitation and western blots.
In assay [2] the target is T1, endogenous TRIM69 (human (endogenous in 293T)) (UniProt Q86WT6).
T1 sequence: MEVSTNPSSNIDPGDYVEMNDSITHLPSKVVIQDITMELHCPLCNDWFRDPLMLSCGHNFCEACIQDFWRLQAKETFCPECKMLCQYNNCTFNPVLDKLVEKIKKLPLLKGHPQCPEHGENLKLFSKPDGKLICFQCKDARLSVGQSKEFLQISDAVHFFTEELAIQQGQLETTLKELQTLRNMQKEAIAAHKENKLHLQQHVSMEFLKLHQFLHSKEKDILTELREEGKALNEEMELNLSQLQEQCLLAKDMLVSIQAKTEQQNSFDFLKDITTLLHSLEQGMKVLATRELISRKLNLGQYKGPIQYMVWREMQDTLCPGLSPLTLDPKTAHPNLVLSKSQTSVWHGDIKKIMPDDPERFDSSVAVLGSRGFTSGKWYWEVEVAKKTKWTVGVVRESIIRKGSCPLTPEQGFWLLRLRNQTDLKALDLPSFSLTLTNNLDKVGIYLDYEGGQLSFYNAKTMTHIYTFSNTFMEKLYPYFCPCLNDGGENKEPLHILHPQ
The assay can be described thus: co-IP; endogenous TRIM69 and NS3 from lysates of 293T cells infected with DENV-2 for 48 h; IP with TRIM69 antibody or NS3 antibody; IgG as control.

The target of assay [3] is T2, TRIM69-Myc (human) (UniProt Q86WT6).
T2 sequence: T1 sequence
The assay can be described thus: co-IP; 293T cells transfected with NS3-Flag and TRIM69-Myc; IP with Flag antibody or, reciprocally, with Myc antibody overnight at 4 C, protein A/G 4 h; western blot. (A western blot detects proteins with antibodies after separation by electrophoresis.)

In assay [4] the target is DENV NS3 from DENV-2 infected B16F10 cells (Dengue virus type 2 (DENV-2), New Guinea C (NGC) strain) (UniProt P14340). The assay can be described thus: co-IP; endogenous mTRIM69 and NS3 from lysates of B16F10 cells infected with DENV-2 for 48 h.
Assay [5] addresses NS3-Flag (Dengue virus type 2 (DENV-2), New Guinea C (NGC) strain) (UniProt P14340). The assay is described as follows: co-IP; 293T cells transfected with NS3-Flag and TRIM69-Myc; IP with Flag antibody or, reciprocally, with Myc antibody overnight at 4 C, protein A/G 4 h; western blot.
The target in assay [6] is GST-NS3 (Dengue virus type 2 (DENV-2), New Guinea C (NGC) strain) (UniProt P14340). The assay can be described thus: pull-down; recombinant GST-NS3 (GST as control) incubated with immunoprecipitation purified TRIM69-Myc; pulled out by GST agarose; western blot; both purified.
Assay [7] has as its target DENV NS3 from DENV-2 infected 293T cells (Dengue virus type 2 (DENV-2), New Guinea C (NGC) strain) (UniProt P14340). The assay is described as follows: co-IP; endogenous TRIM69 and NS3 from lysates of 293T cells infected with DENV-2 for 48 h; IP with TRIM69 antibody or NS3 antibody; IgG as control.

With “DENV NS2B (from UniProt P14340 1346-1475)”, the binding entry in assay [1] is reported as “binds”.

For “DENV NS3 from DENV-2 infected 293T cells (from UniProt P14340 1476-2093)”, the binding entry in assay [2] is reported as “binds”.

With “NS3-Flag (from UniProt P14340 1476-2093)”, the binding result in assay [3] is given as “binds”. Consider “endogenous mTRIM69 (from UniProt Q80X56 1-500)”, for which the binding result in assay [4] is reported as “binds”.

B1: TRIM69-Myc (protein, UniProt Q86WT6 1-500)
chain: T1 sequence
As to B1, the binding entry in assay [5] and in assay [6] was “binds” throughout.

B2: endogenous TRIM69 (protein, UniProt Q86WT6 1-500)
chain: T1 sequence
For the molecule B2, the binding result in assay [7] is on record as “binds”.
